Primary screen of a compound library

Amino acid sequences for entries named in this document (tags omitted). Residues count along the entry.
UniProt P9WPC5, whole entry: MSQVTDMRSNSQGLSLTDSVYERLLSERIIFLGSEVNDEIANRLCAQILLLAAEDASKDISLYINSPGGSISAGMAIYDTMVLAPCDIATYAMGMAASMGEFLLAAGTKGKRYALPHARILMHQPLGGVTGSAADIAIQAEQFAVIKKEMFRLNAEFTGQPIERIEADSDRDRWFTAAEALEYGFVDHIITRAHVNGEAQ
UniProt P9WPC3, whole entry partner: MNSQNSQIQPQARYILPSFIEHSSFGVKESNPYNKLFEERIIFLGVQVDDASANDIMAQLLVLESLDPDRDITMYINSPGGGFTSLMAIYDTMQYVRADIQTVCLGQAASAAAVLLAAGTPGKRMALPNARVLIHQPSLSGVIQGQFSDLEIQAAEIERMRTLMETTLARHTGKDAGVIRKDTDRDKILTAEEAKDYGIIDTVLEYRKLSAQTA
UniProt I6X8D2, whole entry: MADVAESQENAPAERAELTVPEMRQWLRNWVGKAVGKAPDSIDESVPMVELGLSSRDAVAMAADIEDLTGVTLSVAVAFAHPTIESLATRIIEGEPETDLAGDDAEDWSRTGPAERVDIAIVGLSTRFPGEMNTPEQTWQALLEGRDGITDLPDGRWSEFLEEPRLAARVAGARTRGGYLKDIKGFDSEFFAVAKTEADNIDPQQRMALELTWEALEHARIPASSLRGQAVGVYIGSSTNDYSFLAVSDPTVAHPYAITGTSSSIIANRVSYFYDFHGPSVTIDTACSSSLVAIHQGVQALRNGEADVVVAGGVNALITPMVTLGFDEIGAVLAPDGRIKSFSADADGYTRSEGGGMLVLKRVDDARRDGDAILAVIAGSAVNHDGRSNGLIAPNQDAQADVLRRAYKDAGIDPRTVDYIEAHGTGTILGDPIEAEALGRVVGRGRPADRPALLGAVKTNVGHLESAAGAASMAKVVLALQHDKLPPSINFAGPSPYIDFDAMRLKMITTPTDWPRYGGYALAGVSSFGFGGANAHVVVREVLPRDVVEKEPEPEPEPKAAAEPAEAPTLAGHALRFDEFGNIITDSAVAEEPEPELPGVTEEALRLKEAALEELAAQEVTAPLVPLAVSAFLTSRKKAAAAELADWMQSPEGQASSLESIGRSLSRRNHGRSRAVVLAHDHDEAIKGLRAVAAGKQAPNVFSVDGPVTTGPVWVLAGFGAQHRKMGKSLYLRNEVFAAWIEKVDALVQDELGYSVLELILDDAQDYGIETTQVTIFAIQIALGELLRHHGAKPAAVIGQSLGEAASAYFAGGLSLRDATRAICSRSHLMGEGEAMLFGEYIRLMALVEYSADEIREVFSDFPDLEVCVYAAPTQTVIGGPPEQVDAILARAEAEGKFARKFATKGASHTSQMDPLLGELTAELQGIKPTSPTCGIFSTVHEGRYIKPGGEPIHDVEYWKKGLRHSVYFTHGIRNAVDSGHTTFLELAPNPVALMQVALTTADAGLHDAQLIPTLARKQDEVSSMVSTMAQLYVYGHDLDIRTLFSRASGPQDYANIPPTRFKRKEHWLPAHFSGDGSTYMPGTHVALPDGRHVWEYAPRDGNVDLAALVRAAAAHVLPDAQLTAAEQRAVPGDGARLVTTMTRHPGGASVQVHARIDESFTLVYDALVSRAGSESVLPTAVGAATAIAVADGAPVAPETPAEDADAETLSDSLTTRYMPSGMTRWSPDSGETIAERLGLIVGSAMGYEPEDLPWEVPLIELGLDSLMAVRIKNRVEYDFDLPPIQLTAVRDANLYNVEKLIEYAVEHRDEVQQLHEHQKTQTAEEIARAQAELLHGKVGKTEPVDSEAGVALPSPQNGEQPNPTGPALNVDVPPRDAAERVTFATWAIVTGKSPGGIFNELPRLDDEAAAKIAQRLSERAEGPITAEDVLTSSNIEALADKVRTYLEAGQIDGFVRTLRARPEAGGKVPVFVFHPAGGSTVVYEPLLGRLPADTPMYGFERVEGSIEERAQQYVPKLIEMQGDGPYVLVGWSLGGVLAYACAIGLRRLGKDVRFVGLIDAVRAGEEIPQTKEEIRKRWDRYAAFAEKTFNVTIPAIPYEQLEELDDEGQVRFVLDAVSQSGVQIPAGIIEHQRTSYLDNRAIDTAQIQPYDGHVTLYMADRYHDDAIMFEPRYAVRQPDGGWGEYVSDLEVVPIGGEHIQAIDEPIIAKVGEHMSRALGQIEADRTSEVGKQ
UniProt Q8IDJ8, 1-583: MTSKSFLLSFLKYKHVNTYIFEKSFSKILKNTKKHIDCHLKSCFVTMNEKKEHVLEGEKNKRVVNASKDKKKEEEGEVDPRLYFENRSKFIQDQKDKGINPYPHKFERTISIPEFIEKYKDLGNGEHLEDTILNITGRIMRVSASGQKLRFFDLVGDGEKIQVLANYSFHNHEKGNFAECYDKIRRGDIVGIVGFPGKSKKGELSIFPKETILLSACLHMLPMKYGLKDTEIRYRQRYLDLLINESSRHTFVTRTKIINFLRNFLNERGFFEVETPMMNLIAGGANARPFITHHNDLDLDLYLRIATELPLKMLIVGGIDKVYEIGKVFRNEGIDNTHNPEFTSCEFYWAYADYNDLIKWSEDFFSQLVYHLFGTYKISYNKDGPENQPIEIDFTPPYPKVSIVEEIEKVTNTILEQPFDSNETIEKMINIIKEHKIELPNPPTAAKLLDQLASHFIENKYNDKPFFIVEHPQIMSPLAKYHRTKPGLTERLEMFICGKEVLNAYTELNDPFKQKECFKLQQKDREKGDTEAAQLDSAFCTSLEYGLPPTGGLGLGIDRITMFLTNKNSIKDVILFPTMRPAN

ClpP1P2: 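Protease assay of ClpP1P2, read by the AMC dye that it sets free. Target: ClpP1P2, Mycobacterium tuberculosis (UniProt P9WPC5 and UniProt P9WPC3). Compounds at 50 µM. Higher reads as stronger inhibition, judged from the few compounds that gave an IC50. Most other retested compounds had strongly negative values. Size under these conditions: about 69,000 compounds, about 10 of them at 50% or above in at least one test.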
Leishmania in macrophages: 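Cell assay of Leishmania donovani living inside macrophages; the read-out is not stated. Compounds at 30 µM. Direction is inferred from retests: higher values go with stronger inhibition. Of about 69,000 compounds tested this way, about 1,000 (1.5%) reached 50% or more in at least one test.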
Pks13 thioesterase: 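Enzyme assay of the thioesterase domain of polyketide synthase 13; the read-out is not stated. Target: Polyketide synthase Pks13, Mycobacterium tuberculosis (UniProt I6X8D2). Compounds at 30 µM. The record gives no direction; the compounds picked for IC50 retests had high values, so higher reads as stronger inhibition. Size under these conditions: about 67,000 compounds, about 300 of them at 50% or above in at least one test.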
PfKRS1: 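Lysine-tRNA ligase, Plasmodium falciparum 3D7 (UniProt Q8IDJ8). Enzyme assay of the cytosolic lysyl-tRNA synthetase in 384-well plates, read by luminescence. Tested at 30 µM. Direction is inferred from only a few compounds that gave an IC50; most scored high, so higher reads as stronger inhibition. Size under these conditions: about 69,000 compounds, about 49 of them at 50% or above in at least one test.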
Toxoplasma: 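Assay of Toxoplasma gondii numbers, read through their beta-galactosidase reporter with a colour substrate. Tested at 10 µM. The record gives no direction; the compounds picked for IC50 retests had high values, so higher reads as fewer parasites. About 67,000 compounds were tested under these conditions; 0.38% (about 260) showed 50% or more at least once.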

The filed quantity is “Percent Effect” (%). The record does not define 0% and 100%; most values in the screen are far below 50% and negative numbers occur (in some assays of this library far below -100). This is an unselected part of the compounds tested. Two or more numbers in one place are separate tests of the same structure; such repeats can differ widely. A dash means the value is not listed here; it may have been measured.

structure	ClpP1P2	Leishmania in macrophages	Pks13 thioesterase	PfKRS1	Toxoplasma
COC(=O)c1sccc1S(=O)(=O)NCCc1ccoc1	-4.512	-48.04 and -4.99	-99.89	1.392	8.752
CC(O)CN1CCN(C(=O)c2cccn2Cc2ccccc2)CC1 (stereo not shown)	-19.02	-5.101	-6.506	-0.7592	-10.36
Cc1nnc(CN2CCCC2c2c(C)nn(C)c2Cl)o1 (stereo not shown)	13.04	16.81	-16.1	0.1852	-6.684
Cc1ccccc1C(=O)N1C[C@@H]2[C@@H](CN(C)CCc3ccccn3)[C@@H]2C1	0.3763	-	-19.76	2.478	-
CN1C(=O)CC(c2ccccc2)C12CCN(CC1CC1)CC2 (stereo not shown)	8.269	-	-27.02	6.277	-
CCc1[nH]ncc1C(=O)N1CCCN(Cc2nccn2C(C)C)CC1	-16.99	8.853	-15.78	0.03346	3.052
CC(C)(C)CN1CC(COc2ccccc2)Oc2ccncc2S1(=O)=O (stereo not shown)	0.9819	-12.5	8.85	1.496	26.19
Cc1cc(CN(C)c2nc(-c3ccccn3)nc3c2CCNCC3)n[nH]1	-6.768	10.88	-44.35	0.8987	-2.712
O=C(c1ccno1)N1CCn2cc(CN3CCCCC3)nc2C1	10.44	5.226	-8.519	0.6941	-14.06
CC(C)N1CCC(c2nc3ccc(-c4ccnn4C)cn3n2)CC1	-3.999	-	-42.2	-4.977	-
Oc1ccc(Cl)cc1CNCc1ccccc1C(F)(F)F	5.128	20.6	-13.85	-3.686	12.47
Fc1ccc(C(NCc2nnc(C3CC3)o2)C2CCC2)cc1 (stereo not shown)	-5.972	3.445	-54.99	6.74	-9.813
O=C(c1cc(C2CC2)[nH]n1)N1CCCC(n2cncn2)C1 (stereo not shown)	1.172	-1.791	-8.126	4.079	20.83
CC(CC(=O)NS(=O)(=O)c1ccc2c(c1)OCCO2)c1ccc(F)cc1 (stereo not shown)	-12.66	17.34	-3.836	2.729	2.245
Cc1c(C(=O)N2CCCC(n3cccn3)C2)nnn1-c1ccccc1 (stereo not shown)	-15.18	6.106	-2.85	3.615	-5.356
O=C(O)C(F)(F)F.[H][C@@]12CN(Cc3ccccc3)CCC[C@]1(C(=O)O)CN(c1ncccn1)C2	-	5.587	-	-	5.021
Cc1ccc(CNCC(C)Oc2ccccn2)cc1 (stereo not shown)	5.96	-	-34.07	8.195	-
Cn1c(CN2CCN(CC3CC3)CC2)nnc1C1CCC1	-2.825	-0.2506	-18.94	-0.7303	-1.642
Cc1cnn(CCNCc2csc(-c3ccccc3)n2)c1	-43.84	16.15	-7.429	-3.316	24.05
Cc1cc(NCCc2nnc(N)s2)nc(-c2ccccc2)n1	-2.099	18.18	-7.505	-1.816	17.06
COc1ccc(CN2C[C@@H](CN(C)C)[C@@H](CO)C2)c(Cl)c1OC	0.9349	52.59	-4.287	5.01	-6.018
c1ccc(CCCN2CCN(CCn3cncn3)CC2)cc1	-7.352	39.63	-31.09	-0.2977	-5.182
CC(NC(=O)CCCc1nc(C(C)(C)C)no1)c1ccccn1 (stereo not shown)	-5.776	-2.756	-34.37	2.423	-2.605
CC(C)Nc1nc(N2CCCC2)nc2c1CN(c1ncc(F)cn1)CC2	-12.63	60.7	-19.06	-2.382	-4.432
Cc1nc(CN(C)Cc2nc(-c3ccncc3)no2)co1	-6.401	14.93	-10.28	1.924	-10.93
CCC(CO)NCc1ccc(-c2ccc(F)cc2)o1 (stereo not shown)	-2.577	-	-13.87	-0.9375	-
O=C1CC2(CCN(CC3CC3)C2)CN1c1ccc2c(c1)OCO2 (stereo not shown)	12.32	-	-18.64	4.559	-
c1ccc2ncc(CC3CCNCC3)cc2c1	4.27	-17.37	-10.63	2.775	12.11
CC(=O)N1CCN(CCNC(=O)c2nc3ccccc3c(=O)[nH]2)CC1	-7.187	-18.56	-12.19	5.795	-14.19
CNC(=O)[C@@]12CCCN(c3ncccn3)[C@@H]1CN(c1ncc(C)cn1)C2	2.115	-	-27.28	1.185	-
O=C(NCCOc1ncc(Cl)cc1Cl)c1ccncc1F	-6.307	14.26	-3.235	12.46	-3.914
CCn1cc(CN2CCCN(C(=O)c3ccccc3C)CC2)cn1	-40.92	23.34	-26.7	-1.138	7.169
Cn1cncc1C(=O)N1CCCC(c2ccn[nH]2)C1 (stereo not shown)	-7.545	-13.59	0.7172	3.694	-12.05
O=C(Cn1cc(Cl)cn1)N1CCNC1=O	-9.287	-26.98	26.33	-7.488	-10.15

For reference, 4 entries once more:

* Cc1c(C(=O)N2CCCC(n3cccn3)C2)nnn1-c1ccccc1 (stereo not shown) | ClpP1P2: -15.18%; Leishmania in macrophages: 6.106%; Pks13 thioesterase: -2.85%; PfKRS1: 3.615%; Toxoplasma: -5.356%
* CC(C)Nc1nc(N2CCCC2)nc2c1CN(c1ncc(F)cn1)CC2 | ClpP1P2: -12.63%; Leishmania in macrophages: 60.7%; Pks13 thioesterase: -19.06%; PfKRS1: -2.382%; Toxoplasma: -4.432%
* Cc1cc(NCCc2nnc(N)s2)nc(-c2ccccc2)n1 | ClpP1P2: -2.099%; Leishmania in macrophages: 18.18%; Pks13 thioesterase: -7.505%; PfKRS1: -1.816%; Toxoplasma: 17.06%
* O=C(Cn1cc(Cl)cn1)N1CCNC1=O | ClpP1P2: -9.287%; Leishmania in macrophages: -26.98%; Pks13 thioesterase: 26.33%; PfKRS1: -7.488%; Toxoplasma: -10.15%

From ChEMBL document CHEMBL3988442, “University of Dundee, Small-Polar-MMV Screening Library” (2021).